In patent US6894153B1 (priority 1999, dated 2005):

Test: peptide synthesis
Settings: whole synthesis, HPLC and MALDI-TOF MS

Substance	final HPLC purity
PEPTIDE1{D.I.L.R.G}$$$$V2.0	not less than 95%
Asp-Ile-Leu-Arg-Gly-NH2 [DILRG—NH2]	not less than 95%

HELM strings list residues between dots; [ac] is acetyl, [am] amide, other brackets name non-standard units.
